Experimental data taken from PubChem BioAssay.
The list shows a part of the results. Shown are side measurements of this screen, not its main read-out; they come without a call. For part of these data: The list favours compounds with an active or inconclusive main result.

Assays:
PubChem AID 1586 = details: yeast two-hybrid polyglutamine protein interaction, reporter readout; measured here: averaged growth delta OD
[1] = selective SMN2 exon splicing luciferase activators – cell-based, SMN2/SMN1 luciferase reporters (AID 1598); details: SMN2 vs SMN1 luciferase splicing reporter cells, at 10 µM; SMN1 luciferase ratio: measured here: SMN1 luciferase reporter average; SMN2 luciferase ratio: measured here: SMN2 luciferase reporter average, stronger effect = higher value
[2] = rescue of PC12 cells from polyQ htt toxicity – LDH release (AID 1610); details: PC12 mutant huntingtin toxicity, final LDH at 4 uM, stronger effect = lower value

SMILES	signal change (36 h minus 0 h) (PubChem AID 1586)	SMN1 luciferase ratio [1]	SMN2 luciferase ratio [1]	normalised LDH release [2]
CN(C)CCOC(c1ccccc1)c1ccccc1	0.222	0.88	0.86	0.652
CN(C)CCC=C1c2ccccc2C=Cc2ccccc21	0.175	0.84	0.84	1.04
NC(=O)c1ccc([N+](=O)[O-])cc1Cl	0.238	0.97	0.94	0.951
O=C(O)CCCCC1SCC2NC(=O)NC21 (centres undefined)	0.0453	1.04	0.83	1.57
CN1C2CCC1CC(OC(c1ccccc1)c1ccccc1)C2 (centres undefined)	0.101	0.82	0.85	0.777
Nc1ccc(C(=O)NCC(=O)O)cc1	0.257	0.92	0.99	0.798
O=c1cc(CO)occ1O	0.0917	1.01	0.92	0.94
Cc1noc(NS(=O)(=O)c2ccc(N)cc2)c1C	0.106	0.9	0.94	0.499
CC12CC[C@@H]3c4ccc(O)cc4CCC3[C@@H]1CCC2=O (some centres undefined)	0.076	0.92	0.81	1.23
O=C(OCc1ccccc1)c1ccccc1	0.193	0.79	0.81	0.81
NCCCCCC(=O)O	0.204	0.78	0.78	0.768
CC1(C)S[C@@H]2[C@H](NC(=O)[C@H](N)c3ccccc3)C(=O)N2[C@H]1C(=O)O	0.111	0.84	0.89	1.12
NC(N)=N/N=C\c1c(Cl)cccc1Cl	0.152	0.8	0.87	1.17
COc1cc(NC(C)CCCN)c2ncccc2c1 (centres undefined)	0.286	0.95	0.92	1.14
CC(C)(C)NC[C@@H](O)COc1nsnc1N1CCOCC1	0.222	0.87	1	0.89
CCn1nc(C(=O)O)c(=O)c2cc3c(cc21)OCO3	0.0987	0.95	0.86	0.673
CC(CNC(=O)c1ccccc1)C(=O)OCC(=O)[C@@]12OC(C)(C)O[C@@H]1CC1C3CCC4=CC(=O)C=C[C@]4(C)[C@@]3(F)[C@@H](O)C[C@@]12C (some centres undefined)	0.181	1.08	0.89	0.356
CC(=O)Oc1c(C)c(C)c2c(c1C)CCC(C)(CCCC(C)CCCC(C)CCCC(C)C)O2 (centres undefined)	0.0984	0.87	0.91	1.02

Structures above with a Cl atom:
SMILES	signal change (36 h minus 0 h) (PubChem AID 1586)	SMN1 luciferase ratio [1]	SMN2 luciferase ratio [1]	normalised LDH release [2]
NC(=O)c1ccc([N+](=O)[O-])cc1Cl	0.238	0.97	0.94	0.951
NC(N)=N/N=C\c1c(Cl)cccc1Cl	0.152	0.8	0.87	1.17

(more compounds)

SMILES	signal change (36 h minus 0 h) (PubChem AID 1586)	SMN1 luciferase ratio [1]	SMN2 luciferase ratio [1]	normalised LDH release [2]
C#C[C@]1(O)CCC2C3CCc4cc(O)ccc4C3CC[C@@]21C (some centres undefined)	0.0361	0.97	0.87	0.798
NC(N)=Nc1nc(CSCC/C(N)=N\S(N)(=O)=O)cs1	0.138	0.92	0.91	0.919
C1CNCCN1	0.0139	0.92	0.88	1.1
C=C[C@H]1CN2CC[C@H]1C[C@@H]2[C@@H](O)c1ccnc2ccc(OC)cc12	0.0593	0.85	0.94	0.421
OCC(O)CN1CCN(c2ccccc2)CC1 (centres undefined)	0.178	0.89	0.92	0.963
CC(=O)Oc1ccc2c(c1)CCC1C2CCC2(C)C(=O)CCC12 (centres undefined)	0.024	0.88	0.95	1.13
CCc1cccc2c3c([nH]c12)C(CC)(CC(=O)O)OCC3 (centres undefined)	0.112	0.79	0.91	0.713
CCN(CC)C(=O)N1CCN(C)CC1	0.131	0.87	0.89	0.832
Cc1ccc(-c2cc(C(F)(F)F)nn2-c2ccc(S(N)(=O)=O)cc2)cc1	0.133	0.95	0.86	1.12
COc1c(C)c2c(c(O)c1C/C=C(\C)CCC(=O)O)C(=O)OC2	0.0252	0.31	0.48	0.658
Cc1c(N(C)CS(=O)(=O)O)c(=O)n(-c2ccccc2)n1C	0.0775	0.9	0.84	1.18
CSCCC(NC=O)C(=O)NC(C)C(=O)O (centres undefined)	0.15	0.91	0.89	0.71
NC(=O)N1c2ccccc2C=Cc2ccccc21	0.0664	0.81	0.87	0.87
CC1(C)O[C@@H]2C[C@H]3C4C[C@H](F)C5=CC(=O)C=CC5(C)[C@@]4(F)[C@@H](O)C[C@]3(C)[C@]2(C(=O)CO)O1 (some centres undefined)	0.171	0.87	0.85	0.603
CN(C)CCOC(=O)COc1ccc(Cl)cc1	0.174	0.92	0.89	0.605
CC(=O)OCC(=O)[C@H]1CCC2C3CCC4=CC(=O)CC[C@]4(C)C3CC[C@@]21C (some centres undefined)	0.122	0.98	0.81	0.923
CC1(C)S[C@@H]2[C@H](NC(=O)C(C(=O)O)c3ccccc3)C(=O)N2[C@H]1C(=O)O (some centres undefined)	0.142	0.94	0.84	1.03
C=Cc1c(C)c2cc3[nH]c(cc4nc(cc5nc(cc1[nH]2)C(C)=C5CCC(=O)O)C(CCC(=O)O)=C4C)c(C)c3C=C	0.0938	0.79	0.77	0.612
